Measurements: publication PMC8618245, “Mechanisms of CP190 Interaction with Architectural Proteins in Drosophila Melanogaster” (International Journal of Molecular Sciences, 2021)

T1: CP190 D domain fused to the GAL4 DNA-binding domain (Drosophila melanogaster) (UniProt Q24478)
T1 sequence: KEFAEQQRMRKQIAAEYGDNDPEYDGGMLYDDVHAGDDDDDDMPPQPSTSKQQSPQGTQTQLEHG

T2: CP190 M domain (309–470) fused to the GAL4 DNA-binding domain (Drosophila melanogaster) (UniProt Q24478)
T2 sequence: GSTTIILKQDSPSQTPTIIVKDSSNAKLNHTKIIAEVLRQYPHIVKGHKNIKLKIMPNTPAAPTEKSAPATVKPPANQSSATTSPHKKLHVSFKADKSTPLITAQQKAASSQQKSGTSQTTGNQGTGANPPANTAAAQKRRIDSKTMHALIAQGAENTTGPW


What was measured:
[1] = target: T1, CP190 D domain fused to the GAL4 DNA-binding domain (Drosophila melanogaster); experiment: two-hybrid; C2H2 proteins or their fragments fused to the GAL4 activation domain (pGAD424), CP190 BTB, D or M domain or full-length CP190 fused to the GAL4 DNA-binding domain (pGBT9); yeast strain pJ69-4A; growth on media without tryptophan, leucine, histidine and adenine compared after 2–3 days, 30 °C; includes the screen of a library of 154 C2H2 proteins
[2] = target: T2, CP190 M domain (309–470) fused to the GAL4 DNA-binding domain (Drosophila melanogaster); experiment: as above
[3] = target: CP190 BTB domain F15A fused to the GAL4 DNA-binding domain (Drosophila melanogaster); experiment: as above
[4] = target: CP190 BTB domain K117S fused to the GAL4 DNA-binding domain (Drosophila melanogaster); experiment: as above
[5] = target: CP190 BTB domain K19A fused to the GAL4 DNA-binding domain (Drosophila melanogaster); experiment: as above
[6] = target: CP190 BTB domain L118A fused to the GAL4 DNA-binding domain (Drosophila melanogaster); experiment: as above
[7] = target: CP190 BTB domain V114A fused to the GAL4 DNA-binding domain (Drosophila melanogaster); experiment: as above
[8] = target: CP190 BTB domain V114N fused to the GAL4 DNA-binding domain (Drosophila melanogaster); experiment: as above
[9] = target: CP190 BTB domain V7A fused to the GAL4 DNA-binding domain (Drosophila melanogaster); experiment: as above
[10] = target: CP190 BTB domain fused to the GAL4 DNA-binding domain (Drosophila melanogaster); experiment: as above
[11] = target: GST-fused CG31365 324–455 (Drosophila melanogaster); experiment: pull-down; GST pull-down from lysate of BL21 cells co-expressing the GST-fused C2H2 fragment and 6×His-Thioredoxin-fused CP190 1–126; glutathione agarose, buffer C (20 mM Tris pH 7.5, 150 mM NaCl, 10 mM MgCl2, 0.1 mM ZnCl2, 0.1% NP40, 10% glycerol, 1 mM DTT), +4 °C, washes with 500 mM NaCl
[12] = target: GST-fused CG31365 368–455 (Drosophila melanogaster); experiment: as above
[13] = target: GST-fused CG4730 1–133 (Drosophila melanogaster); experiment: as above
[14] = target: GST-fused CG4730 ZAD domain (Drosophila melanogaster); experiment: as above

binding [2]	binding [3]	binding [4]	binding [5]	binding [6]	binding [7]	binding [8]	binding [9]	binding [10]	Molecule	also measured
binds									CG31365 full-length fused to the GAL4 activation domain (Drosophila melanogaster)	binding [1]: no binding
binds									CG4730 full-length fused to the GAL4 activation domain (Drosophila melanogaster)	binding [1]: binds
binds									CG31365 1–455 fused to the GAL4 activation domain (Drosophila melanogaster) (domain or fragment)	
	no binding	no binding	no binding	no binding	no binding	no binding	no binding	binds	VTVVTEEDDTIDFILADDEEVVPGRIENNNGQEIVVTE (domain or fragment, UniProt P08970 150-187) [Su(Hw) 150–187 fused to the GAL4 activation domain]	
									6×His-Thioredoxin-fused CP190 1–126 (BTB domain) (domain or fragment, UniProt Q24478 1-126) MGEVKSVKVDNWGVFFLQKLQNFFNKTDYCDLTLQFRDNSQLKVHRLVLSACTDYFNVLEQTCEIVDDALIMPNEFQADVVVPIVNFMYTGTLEFELKMYGKLLRTAKEMNMTVLLKLLEAHRRTM	binding [11]: binds; binding [12]: binds; binding [13]: binds; binding [14]: binds weakly
	binds	binds	binds	binds	binds	binds	binds	binds	Pita fused to the GAL4 activation domain (protein, UniProt Q95RQ8 1-683) MAAKLEVREAMLTEKRVCRFCLTEQKLASIFEENPRVKTTANLPLQIMAITAIEVYAGDGMPGHICLECRLLFEHCYRFKQMCKRAETLLRQYPLTGNWPSPLEKPRAPMTMVASKKLLVVPAKTAEPSETPKKLLNTMAKSSSQVIIEDVQVLESAMVTPRTVAGSSPVPRRSHAYELKVDNNQELSMDDVQSMLEDMASELEKEFPDIPQKASPVKPKVLNKSSIRILNKGPAAPVEPRLATPKVKRDDSGNVAIVTEVLDSDLPLDDQDDPTKNAEKVATDVFPCPDCERSFPLQQLLEIHRLNHTRSRSFQCLLCEKSFFSKYDLAKHNFVHTGERPFKCAICSKAFTRKALLHRHERTHTDVPKFICVYCEKPFLSRQEMEKHAERHQKKRPFQCGVCTKSFAFKQGLERHETVHSTNLPFPCQHCERSFSTASKLARHLVAHAGKRAYPCKYCHKSYMLSHHLSRHLRTHTQTSDASFVCSECKVSYSNYNDLLDHALIHATASLKCPMCRKQIEDIDSVESHMDQHKQSERHACEFCDHIFLTQKCLQRHIEDDHVVEMEPYQNEFEDDGEGEGGVDEKEEHLDDFEDMDNVKQEEFVTEYLEDDALYEDHLDDSDESFTPPPPKQRKTNPPKDAQQSVRQTRSRDAQRITQKTGKNEGKPHHKLERNLKNRRSAK	
	no binding	no binding	binds	no binding	no binding	no binding	no binding	binds	dCTCF fused to the GAL4 activation domain (protein, UniProt Q9VS55 1-818) MPRRTKKDEDPEDLQTFLNNFHKEIEGNSDEKVVNTILEAISAEAIDLDENGAEAGGSKPMEEAEADLDHAEEAEEEEEDDEDKYFIDDEGNCYIKTTPKKQKELQKKLKQAAAKPGKATRSVVSTATNKSINLRPAKSTPKATTSKPPPEPKAISVRPARAAAAKAKQSAMPPPPALVVKVPAPRGRPRKNPVIPKPEPMDLERELEELVDEPDISSMVTELSDYTVDEAAVEAATATLTPNEAEVYEFEDNATTEDENADKKDVDFVLSNKEVKLKTASSTSQNSNASGHKYSCPHCPYTASKKFLITRHSRSHDVEPSFKCSICERSFRSNVGLQNHINTHMGNKPHKCKLCESAFTTSGELVRHTRYKHTKEKPHKCTECTYASVELTKLRRHMTCHTGERPYQCPHCTYASQDMFKLKRHMVIHTGEKKYQCDICKSRFTQSNSLKAHKLIHSVVDKPVFQCNYCPTTCGRKADLRVHIKHMHTSDVPMTCRRCGQQLPDRYQYKLHVKSHEGEKCYSCKLCSYASVTQRHLASHMLIHLDEKPFHCDQCPQAFRQRQLLRRHMNLVHNEEYQPPEPREKLHKCPSCPREFTHKGNLMRHMETHDDSANAREKRRRLKLGRNVRLQKDGTVITLIKDQYVDMDRDQEENEEDDNPESYDLAEIEPENSEAEDADDDVETIVSDPIRQRIKPAPIIINKQARLAASEKQPMIINQRLRSQRGTKTFHIKEEPDNSDFTVEWQGDDGEVMVVELVNGDEEVLVKHEPSANSKISAKNCFGFEDDDDYEEYGDGENEVDGASQEFLQLMDMIEQDS	

These are yes or no findings as the source states them, for the method shown. Binding calls can cover weak binding; strength is not graded here. Sequences can lack the tags named with a protein. For part of these data: Binding seen in cells or lysates may run through a third protein.
